The assay deals with Salmonella enterica serovar Typhimurium SL1344. The assay is described as follows: bacterial growth OD600 after 18 h with compound and polymyxin B; higher = more bacterial growth (less inhibition). The conditions noted are these: 50 µM, Mueller-Hinton broth.

Molecules are shown by their SMILES. The list shows a part of the results. Values are raw readings; no control value is given beside them.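 Primary screen: polymyxin B was added at a level permeabilizing Salmonella outer membranes while sparing inner membranes. DMSO wells, both with and without polymyxin B, established maximum growth. Plate-to-plate variation meant each plate was ranked on its own, and the lowest-OD600 compounds were selected as hits.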

Consider `O=C(NC1CCCN(CC2CCCCC2)C1)c1ccc2[nH]ccc2c1` (stereo not given), for which the “bacterial growth OD600” value (polymyxin B 0.75 µg/mL) was 0.791.
As to `C=CCN(CC=C)C(=O)CC1(c2ccccc2OC)CC(=O)N(C2CCCC2)C1=O` (stereo not given), the “bacterial growth OD600” value (polymyxin B 0.75 µg/mL) amounted to 0.005.
As for `C=C(C)CN(CC)Cc1c(C(=O)N2CCc3ccccc3C2)nc2ccc(Cl)cn12`, the “bacterial growth OD600” value (polymyxin B 0.75 µg/mL) is -0.004.
In the case of `CC(C)CNC1CCN(c2ccc(C(=O)NC(C)c3ccccc3)cc2)CC1` (stereo not given), the “bacterial growth OD600” value (polymyxin B 0.75 µg/mL) came to 0.788.
For the compound `COc1cc(OC)c(OC)cc1CN(CC1CCN(C2CCCC2)CC1)CC1CCCO1` (stereo not given), under “polymyxin B 1 µg/mL”, the “bacterial growth OD600” value was 0.687.
Take `COc1cccc(CCC(=O)N2CC(=O)N(c3ccccc3SC)C(C)C2)c1` (stereo not given): the “bacterial growth OD600” value (polymyxin B 0.75 µg/mL) worked out at 0.81.
Turning to `O=C(c1ccc(NCC2CCCCO2)nc1)N1CCC(CCn2cccn2)CC1` (stereo not given), the “bacterial growth OD600” value (polymyxin B 1 µg/mL) came out at 0.969.
Take `Cc1cnc(SCCN2CCOCC2)nc1C1CCCN(C(=O)Cc2c(F)ccc(F)c2F)C1` (stereo not given): the “bacterial growth OD600” value (polymyxin B 0.75 µg/mL) was 0.968.
Take `Cc1cc(-c2ccnc(-n3ncc(C(=O)N(CCO)Cc4ccccc4)c3C3CC3)n2)c(C)s1`: the “bacterial growth OD600” value (polymyxin B 0.75 µg/mL) came to 0.858.
`Cc1c(CC(=O)NC2CCOCC2)c2c(n1Cc1ccccc1)CCCC2=O`: under “polymyxin B 1 µg/mL”, the “bacterial growth OD600” value was found to be 1.08.
Take `CCNC(=O)N1CCC(C2CCN(c3ncccn3)CC2)C1` (stereo not given): the “bacterial growth OD600” value (polymyxin B 0.75 µg/mL) was found to be 0.85.
As for `C/C(=C\c1ccccc1)CN1CCC(n2nccc2NC(=O)c2cccnc2)CC1`, where the note is “polymyxin B 0.75 µg/mL”, the “bacterial growth OD600” value was 0.901.
Consider `Cc1cc(C)c(C(=O)N2CCc3onc(-c4ccc5c(c4)OCO5)c3C2)o1`, for which the “bacterial growth OD600” value (polymyxin B 0.75 µg/mL) worked out at 0.032.
For `COc1cc(CN2CCC3(CC2)CC3C(=O)N2CCCN(C)CC2)cc(OC)c1` (stereo not given), the “bacterial growth OD600” value (polymyxin B 0.75 µg/mL) came out at 0.957.
With `CSCCC(=O)NCC1Cc2cc(C)cc(-c3ccccn3)c2O1` (stereo not given), the “bacterial growth OD600” value (polymyxin B 0.75 µg/mL) came to 0.84.
For the compound `O=C1N(C2Cc3ccccc3C2)C[C@@H]2C[C@@H](c3cccc4c3OCO4)N3CCC[C@@]123`, the “bacterial growth OD600” value (polymyxin B 1 µg/mL) came to 0.017.
For `C=CCC(=O)NC(C)c1cnc(N2CCCCCCC2)nc1C` (stereo not given), the “bacterial growth OD600” value (polymyxin B 1 µg/mL) was 1.1.
As for `Cn1cc(CN2CCCC(C(=O)N3CCOCC3)C2)c(-c2ccc3c(c2)OCCO3)n1` (stereo not given), the “bacterial growth OD600” value (polymyxin B 1 µg/mL) was 0.847.
Same read-out and setting: for `Cc1cc(C)n(-c2cccc(CNC3COc4ccccc4C3)c2)n1` (stereo not given) the value was 1.18.
With `COc1ccc(C(=O)N2CCCC2)c(OC2CCN(Cc3ccccc3)CC2)c1`, the “bacterial growth OD600” value (polymyxin B 1 µg/mL) turned out to be 0.892.
With `COCC(=O)Nc1cc(C(=O)N(C)Cc2cn(C)nc2C)c2c(c1)ncn2Cc1ccc(F)cc1`, the “bacterial growth OD600” value (polymyxin B 0.75 µg/mL) was found to be 0.909.
For `CO[C@H]1[C@H](NC(=O)COc2ccccc2)c2ccccc2C12CCN(C(=O)c1c(C)noc1C)CC2`, the “bacterial growth OD600” value (polymyxin B 0.75 µg/mL) was found to be 0.9.
On to `CC1CCCN(C(=O)CC2(c3ccc(-c4ccccc4)cc3)CC(=O)N(C3CC3)C2=O)C1` (stereo not given), for which the “bacterial growth OD600” value (polymyxin B 0.75 µg/mL) stood at 0.004.
On to `CCN(CC1CCCN(CCc2cccc(F)c2)C1)C(=O)CCN1CCOCC1` (stereo not given), for which the “bacterial growth OD600” value (polymyxin B 0.75 µg/mL) was 0.8.
Consider `Cc1noc(C)c1C(=O)N1CCCC(N2CCN(Cc3ccc4c(c3)OCO4)CC2)C1` (stereo not given), for which the “bacterial growth OD600” value (polymyxin B 1 µg/mL) worked out at 0.944.
For the compound `CCn1ccnc1CN(C)C(=O)c1coc(COc2ccccc2)n1`, under “polymyxin B 0.75 µg/mL”, the “bacterial growth OD600” value worked out at 0.824.
For `COc1cc(C(=O)NCc2ccc(Cl)cc2)ccc1OC1CCN(C(C)=O)CC1`, the “bacterial growth OD600” value (polymyxin B 1 µg/mL) came to 0.934.
On to `COCCn1c(-c2ccccn2)nc2cc(NC(C)=O)cc(C(=O)N(C)Cc3ccc(F)cc3)c21`, for which the “bacterial growth OD600” value (polymyxin B 0.75 µg/mL) is 0.95.
For `CC(=O)N1CCC(C(=O)N2CCCC(CCc3c(F)cccc3F)C2)CC1` (stereo not given), the “bacterial growth OD600” value (polymyxin B 0.75 µg/mL) worked out at 0.005.
With `COc1ccc(-c2nn(-c3ccccc3)cc2CN(C)C2CCOCC2)c(F)c1`, where the note is “polymyxin B 1 µg/mL”, the “bacterial growth OD600” value came out at 0.68.

Values taken from the supplement of paper PMC12889115.
